Assay results from PMC3799431.
Results are given in words; binding and its absence hold for the method and conditions named. Binding seen in cells or lysates may run through a third protein. Some results given as binding are weak or reduced against the parent protein; the word gives no strength.

By UniProt entry, the sequences of proteins in these tests, tags left out.
UniProt Q13285: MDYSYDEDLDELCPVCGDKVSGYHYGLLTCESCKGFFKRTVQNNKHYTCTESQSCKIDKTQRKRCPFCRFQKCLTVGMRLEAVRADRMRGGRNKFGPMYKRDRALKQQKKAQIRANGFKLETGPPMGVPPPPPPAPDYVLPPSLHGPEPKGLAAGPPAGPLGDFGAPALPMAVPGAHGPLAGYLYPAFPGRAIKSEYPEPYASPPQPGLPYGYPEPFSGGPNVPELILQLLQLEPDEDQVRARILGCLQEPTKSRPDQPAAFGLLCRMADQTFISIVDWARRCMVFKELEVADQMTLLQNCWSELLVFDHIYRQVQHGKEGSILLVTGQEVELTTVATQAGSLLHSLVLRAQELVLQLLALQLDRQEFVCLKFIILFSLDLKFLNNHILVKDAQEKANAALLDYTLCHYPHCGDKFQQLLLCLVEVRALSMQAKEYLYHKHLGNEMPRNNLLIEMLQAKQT

Target: T1, Neuron-Restrictive Silencer Factor/RE1-Silencing Transcription Factor (NRSF/REST) (human (endogenous in H295R)) (UniProt Q13127)
T1 sequence: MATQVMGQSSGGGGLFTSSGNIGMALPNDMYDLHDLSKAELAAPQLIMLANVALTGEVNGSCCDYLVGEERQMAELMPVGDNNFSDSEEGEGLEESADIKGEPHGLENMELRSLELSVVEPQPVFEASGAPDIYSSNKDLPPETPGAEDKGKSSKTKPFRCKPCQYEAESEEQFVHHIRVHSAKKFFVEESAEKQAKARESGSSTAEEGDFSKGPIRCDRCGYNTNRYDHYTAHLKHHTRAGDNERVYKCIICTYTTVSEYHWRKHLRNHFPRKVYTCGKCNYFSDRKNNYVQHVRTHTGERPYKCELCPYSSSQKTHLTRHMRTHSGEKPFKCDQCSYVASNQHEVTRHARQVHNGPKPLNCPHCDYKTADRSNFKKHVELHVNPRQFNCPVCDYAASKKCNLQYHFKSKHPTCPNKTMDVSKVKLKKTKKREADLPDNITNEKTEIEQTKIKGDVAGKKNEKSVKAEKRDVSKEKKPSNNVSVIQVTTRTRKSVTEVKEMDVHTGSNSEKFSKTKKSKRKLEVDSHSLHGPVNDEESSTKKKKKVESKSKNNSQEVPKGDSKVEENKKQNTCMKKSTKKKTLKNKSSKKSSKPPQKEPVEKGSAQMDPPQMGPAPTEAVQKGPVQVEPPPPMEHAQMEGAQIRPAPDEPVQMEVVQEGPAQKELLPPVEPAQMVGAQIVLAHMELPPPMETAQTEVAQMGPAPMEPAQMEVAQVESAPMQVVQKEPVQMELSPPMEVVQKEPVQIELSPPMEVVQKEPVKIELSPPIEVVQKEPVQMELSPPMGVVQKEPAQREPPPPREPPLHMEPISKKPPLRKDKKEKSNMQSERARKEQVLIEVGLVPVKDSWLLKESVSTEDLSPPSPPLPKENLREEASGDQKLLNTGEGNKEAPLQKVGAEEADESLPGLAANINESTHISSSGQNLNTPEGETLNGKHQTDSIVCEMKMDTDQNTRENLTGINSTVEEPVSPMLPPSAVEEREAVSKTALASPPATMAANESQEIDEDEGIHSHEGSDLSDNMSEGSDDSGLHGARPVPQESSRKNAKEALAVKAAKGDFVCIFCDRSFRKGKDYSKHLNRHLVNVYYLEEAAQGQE
Test: co-IP; nuclear extract of H295R/TR SF-1 cells, salt adjusted to 150 mM; anti SF-1 or anti NRSF/REST antibody (or preimmune rabbit IgG) overnight at 4°C, Protein A magnetic beads; washes with 20 mM HEPES-KOH pH 7.5, 150 mM NaCl, 0.5 mM EDTA, 0.5% NP-40; immunoblot with the same antibodies

- binding: binds
Substance: Steroidogenic Factor-1 (SF-1) (from UniProt Q13285 1-461)
